Measured values as given in paper PMC4491109, “Synthesis and anticonvulsant activity of new N-phenyl-2-(4-phenylpiperazin-1-yl)acetamide derivatives” (Medicinal Chemistry Research, 2015).

Each compound was assayed on maximal electroshock (MES) seizures (assay: MES test after oral administration in rats (screen and quantification)). Settings: p.o.
Format: in vivo
Protocol: This screen discloses the time of onset, the approximate time of peak effect (TPE) and the duration of anticonvulsant activity or neurotoxicity.
The quantitative evaluation of the MES median effective dose (ED50) and toxic dose (TD50) was performed at previously estimated TPE—2 h.
Phase I of the in vivo studies involved three tests: MES, scPTZ and rotarod test for NT. Male albino mice (CF#1 strain, weighing 18–25 g) and male albino rats (Sprague–Dawley) were used as experimental animals. The animals were housed in metabolic cages and allowed free access to food and water. The compounds were injected intraperitoneally to mice as a suspension in 0.5 % methylcellulose/water mixture at a dose level 30, 100 or 300 mg/kg with anticonvulsant activity and neurotoxicity assessment at 0.5 and 4 h after administration. Promising derivatives from phase I underwent phase VIa in which they were administrated orally into rats at a fixed dose of 30 mg/kg for both MES and the rotarod toxicity determination at five pretreatment times: 0.25, 0.5, 1, 2, 4 h. Groups of eight mice or four rats are employed.
In the MES screen, an electrical stimulus of 0.2 s in duration (50 mA in mice and 150 mA in rats) is delivered via corneal electrodes primed with an electrolyte solution containing an anesthetic agent. The endpoint is the tonic extension of the hind limbs. […] Mice not displaying hind limb tonic extension are considered to be protected from seizures.

Question: For `Cl.O=C(CN1CCN(c2cccc(C(F)(F)F)c2)CC1)Nc1cccc(C(F)(F)F)c1` [Compound 20, N-[3-(Trifluoromethyl)phenyl]-2-[4-[3-(trifluoromethyl)phenyl]piperazin-1-yl]acetamide monohydrochloride], which “TPE (time to peak effect)” value is on record?
Answer: The value was 2 h.

Question: `O=C1NC(=O)C(c2ccccc2)(c2ccccc2)N1` [Phenytoin, reference compound] was tested. Which “TPE (time to peak effect)” value did it give?
Answer: Its value is 1 h.

Question: How did the “TPE (time to peak effect)” value turn out when `CCCC(CCC)C(=O)O` [Valproic acid] was run?
Answer: Its value is 1 h.
